Assay results reported in the supplement of paper PMC8728848.
The list shows a part of the results.

Assays:
Experiment in all cases: glycan array binding signal (z-score within array); higher = stronger binding
Details in all cases: glycan notation: IUPAC condensed, linker removed
[1] = target: Neu5Ac(a2-3)Gal(b1-4)GlcNAc(b1-3)[Neu5Ac(a2-3)Gal(b1-4)GlcNAc(b1-6)]GalNAc
Outline: (§1)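 The binding signal is a Z-score computed within each array. Data were drawn from 3228 arrays in the Consortium for Functional Glycomics database, restricted to those with a known protein sequence. Scores were averaged over arrays of the same protein sequence at different concentrations or buffers, and over linkers, and negative values can be taken as non-binding.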

[2] = target: Neu5Ac(a2-3)Gal(b1-4)GlcNAc(b1-6)GalNAc
Outline: as §1

[3] = target: Neu5Ac(a2-3)Gal(b1-4)GlcNAc(b1-6)[Gal(b1-3)]GalNAc
Outline: as §1

[4] = target: Neu5Ac(a2-3)Gal(b1-4)GlcNAc(b1-6)[Neu5Ac(a2-3)Gal(b1-3)]GalNAc
Outline: as §1

[5] = target: Neu5Ac(a2-3)Gal(b1-4)GlcNAc6S
Outline: as §1

[6] = target: Neu5Ac(a2-3)Gal(b1-4)[Fuc(a1-3)]GlcNAc
Outline: as §1

[7] = target: Neu5Ac(a2-3)Gal(b1-4)[Fuc(a1-3)]GlcNAc(b1-2)Man
Outline: as §1

[8] = target: Neu5Ac(a2-3)Gal(b1-4)[Fuc(a1-3)]GlcNAc(b1-3)Gal
Outline: as §1

[9] = target: Neu5Ac(a2-3)Gal(b1-4)[Fuc(a1-3)]GlcNAc(b1-3)Gal(b1-4)GlcNAc
Outline: as §1

[10] = target: Neu5Ac(a2-3)Gal(b1-4)[Fuc(a1-3)]GlcNAc(b1-3)Gal(b1-4)[Fuc(a1-3)]GlcNAc(b1-3)Gal(b1-4)[Fuc(a1-3)]GlcNAc
Outline: as §1

[11] = target: Neu5Ac(a2-3)Gal(b1-4)[Fuc(a1-3)]GlcNAc(b1-3)GalNAc
Outline: as §1

[12] = target: Neu5Ac(a2-3)Gal(b1-4)[Fuc(a1-3)]GlcNAc(b1-6)[Gal(b1-3)]GalNAc
Outline: as §1

[13] = target: Neu5Ac(a2-3)Gal(b1-4)[Fuc(a1-3)]GlcNAc(b1-6)[Neu5Ac(a2-3)Gal(b1-3)]GalNAc
Outline: as §1

[14] = target: Neu5Ac(a2-3)Gal(b1-4)[Fuc(a1-3)]GlcNAc6S
Outline: as §1

[15] = target: Neu5Ac(a2-3)Gal6S(b1-4)GlcNAc
Outline: as §1

[16] = target: Neu5Ac(a2-3)Gal6S(b1-4)[Fuc(a1-3)]GlcNAc
Outline: as §1

Neu5Ac(a2-3)GalNAc = target: Neu5Ac(a2-3)GalNAc
Outline: as §1

[17] = target: Neu5Ac(a2-3)GalNAc(b1-4)GlcNAc
Outline: as §1

[18] = target: Neu5Ac(a2-3)[GalNAc(b1-4)]Gal(b1-4)Glc
Outline: as §1

[19] = target: Neu5Ac(a2-3)[GalNAc(b1-4)]Gal(b1-4)GlcNAc
Outline: as §1

[20] = target: Neu5Ac(a2-3)[GalNAc(b1-4)]Gal(b1-4)GlcNAc(b1-3)GalNAc
Outline: as §1

[21] = target: Neu5Ac(a2-3)[Neu5Ac(a2-6)]GalNAc
Outline: as §1

Neu5Ac(a2-6)Gal = target: Neu5Ac(a2-6)Gal
Outline: as §1

[22] = target: Neu5Ac(a2-6)Gal(b1-3)GlcNAc(b1-3)[Gal(b1-4)GlcNAc(b1-6)]Gal(b1-4)Glc
Outline: as §1

Neu5Ac(a2-6)Gal(b1-4)Glc = target: Neu5Ac(a2-6)Gal(b1-4)Glc
Outline: as §1

[23] = target: Neu5Ac(a2-6)Gal(b1-4)GlcNAc
Outline: as §1

[24] = target: Neu5Ac(a2-6)Gal(b1-4)GlcNAc(b1-2)Man
Outline: as §1

[25] = target: Neu5Ac(a2-6)Gal(b1-4)GlcNAc(b1-2)Man(a1-3)Man(b1-4)GlcNAc(b1-4)GlcNAc
Outline: as §1

[26] = target: Neu5Ac(a2-6)Gal(b1-4)GlcNAc(b1-2)Man(a1-3)[Gal(b1-4)GlcNAc(b1-2)Man(a1-6)]Man(b1-4)GlcNAc(b1-4)GlcNAc
Outline: as §1

[27] = target: Neu5Ac(a2-6)Gal(b1-4)GlcNAc(b1-2)Man(a1-3)[GlcNAc(b1-2)Man(a1-6)]Man(b1-4)GlcNAc(b1-4)GlcNAc
Outline: as §1

B1: BT4246 (Bacteroides thetaiotaomicron), Q89ZX5 (protein)
chain: MGSSHHHHHHENLYFQGHMASDYLDVVPPEQPNIDDAMSSPTRALGFLYSCYGGVSTDLPSAYLGEINSTTDEYVLPYSWNTDGYWGAYAFNTASSTNQDWLWGTTYQYIGQCYLFLQKLENAGSDIASDAEKEQWRAECQFLVAYYHFATLRRYGPIPITDSYIPMDTPTSEYNGRFHFDYCVDWIANQLDEAAKVLPANRTVTNEWGRATSTIAKAVKARLLLYAASPLWNGSFPYPNWQNENFETPGYGKALVSNTYDKSKWERALAACQEALTLATTSGDRELYDDDEYYSRQSLNLPFVPGVADVEDNKEFLKNVMKMRYAVSTRESEGNKEIIWGLSNQFDFYSRYPLRILKKSDGTWHAGYSGVSPTLYTFEHFYTANGKLPEKDLDFTPSSEWFESAGISSREDIIKLNVGREPRFYAWMAFDGGDYGTKFAAGSPLKLEMRNSEMHGYNPSLFNRDHSVTGFLTQKFVDPVTEFYTAGGSTSGTSAPTILFRLAELYLNVAECHAALGNTQEAIDALNPVRERAGIPKLTLADITNNMTIKDWVHNERFVELWNEGHRFFDVRRWAEGAKYFGANKREGLNAEVQSPTFEEFNKRTTVDAPYVWENRMYLNPVFYNEVYKNPQMVQAPGY
- glycan array binding signal (z-score) [1]: -0.339
- glycan array binding signal (z-score) [2]: -0.438
- glycan array binding signal (z-score) [3]: 0.775
- glycan array binding signal (z-score) [4]: 0.712
- glycan array binding signal (z-score) [5]: 0.095
- glycan array binding signal (z-score) [6]: -0.492
- glycan array binding signal (z-score) [7]: 0.232
- glycan array binding signal (z-score) [8]: -1.17
- glycan array binding signal (z-score) [9]: -0.818
- glycan array binding signal (z-score) [10]: -0.944
- glycan array binding signal (z-score) [11]: 4.68
- glycan array binding signal (z-score) [12]: 2.47
- glycan array binding signal (z-score) [13]: 0.541
- glycan array binding signal (z-score) [14]: -0.707
- glycan array binding signal (z-score) [15]: -0.718
- glycan array binding signal (z-score) [16]: -0.225
- glycan array binding signal (z-score) (Neu5Ac(a2-3)GalNAc): -0.505
- glycan array binding signal (z-score) [17]: 0.153
- glycan array binding signal (z-score) [18]: 0
- glycan array binding signal (z-score) [19]: 0.511
- glycan array binding signal (z-score) [20]: -0.441
- glycan array binding signal (z-score) [21]: 0.772
- glycan array binding signal (z-score) (Neu5Ac(a2-6)Gal): -0.826
- glycan array binding signal (z-score) [22]: -0.315
- glycan array binding signal (z-score) (Neu5Ac(a2-6)Gal(b1-4)Glc): -0.168
- glycan array binding signal (z-score) [23]: 0.129
- glycan array binding signal (z-score) [24]: -0.045
- glycan array binding signal (z-score) [25]: -1.05
- glycan array binding signal (z-score) [26]: -0.095
- glycan array binding signal (z-score) [27]: -0.47
